These are yes or no findings as the source states them, for the method shown. In cells and extracts the contact can be indirect. Some binding calls cover weakened binding; strength is not graded here.
Molecular target: Integral membrane protein 2A (ITM2A) in HEK293T cells (human (endogenous in HEK293T)) (UniProt O43736)
Test: co-IP; HEK293T cells lysed in RIPA buffer (50 mM Tris-HCl pH 7.4, 150 mM NaCl, 1% Triton X-100); ITM2A antibody overnight at 4 °C, protein A/G agarose beads; western blot for HUNK

Amino acid sequences for entries named in this document (tags omitted).
UniProt O43736: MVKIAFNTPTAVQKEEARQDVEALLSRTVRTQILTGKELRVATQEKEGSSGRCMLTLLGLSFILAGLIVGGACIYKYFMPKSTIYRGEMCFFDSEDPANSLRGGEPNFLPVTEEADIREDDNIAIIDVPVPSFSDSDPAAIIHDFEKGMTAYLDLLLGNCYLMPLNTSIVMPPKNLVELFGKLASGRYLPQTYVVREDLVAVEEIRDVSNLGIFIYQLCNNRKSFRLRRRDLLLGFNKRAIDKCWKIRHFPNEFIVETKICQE

binding: binds
B1: Up-regulated Neu-associated Kinase (HUNK) in HEK293T cells (protein, UniProt P57058 1-714)
chain: MPAAAGDGLLGEPAAPGGGGGAEDAARPAAACEGSFLPAWVSGVPRERLRDFQHHKRVGNYLIGSRKLGEGSFAKVREGLHVLTGEKVAIKVIDKKRAKKDTYVTKNLRREGQIQQMIRHPNITQLLDILETENSYYLVMELCPGGNLMHKIYEKKRLEESEARRYIRQLISAVEHLHRAGVVHRDLKIENLLLDEDNNIKLIDFGLSNCAGILGYSDPFSTQCGSPAYAAPELLARKKYGPKIDVWSIGVNMYAMLTGTLPFTVEPFSLRALYQKMVDKEMNPLPTQLSTGAISFLRSLLEPDPVKRPNIQQALANRWLNENYTGKVPCNVTYPNRISLEDLSPSVVLHMTEKLGYKNSDVINTVLSNRACHILAIYFLLNKKLERYLSGKSDIQDSLCYKTRLYQIEKYRAPKESYEASLDTWTRDLEFHAVQDKKPKEQEKRGDFLHRPFSKKLDKNLPSHKQPSGSLMTQIQNTKALLKDRKASKSSFPDKDSFGCRNIFRKTSDSNCVASSSMEFIPVPPPRTPRIVKKPEPHQPGPGSTGIPHKEDPLMLDMVRSFESVDRDDHVEVLSPSHHYRILNSPVSLARRNSSERTLSPGLPSGSMSPLHTPLHPTLVSFAHEDKNSPPKEEGLCCPPPVPSNGPMQPLGSPNCVKSRGRFPMMGIGQMLRKRHQSLQPSADRPLEASLPPLQPLAPVNLAFDMADGVKTQC

— paper PMC6704577
